The source of these data is publication PMC5839545.

By UniProt entry, the sequences of proteins in these tests, tags left out. Where a name states a change or a piece, a line headed by the entry shows the natural chain unless it says otherwise. Residues count along the entry.
EGFP-(s)-CENP-T^∆C (Q96BT3, residues 1-395): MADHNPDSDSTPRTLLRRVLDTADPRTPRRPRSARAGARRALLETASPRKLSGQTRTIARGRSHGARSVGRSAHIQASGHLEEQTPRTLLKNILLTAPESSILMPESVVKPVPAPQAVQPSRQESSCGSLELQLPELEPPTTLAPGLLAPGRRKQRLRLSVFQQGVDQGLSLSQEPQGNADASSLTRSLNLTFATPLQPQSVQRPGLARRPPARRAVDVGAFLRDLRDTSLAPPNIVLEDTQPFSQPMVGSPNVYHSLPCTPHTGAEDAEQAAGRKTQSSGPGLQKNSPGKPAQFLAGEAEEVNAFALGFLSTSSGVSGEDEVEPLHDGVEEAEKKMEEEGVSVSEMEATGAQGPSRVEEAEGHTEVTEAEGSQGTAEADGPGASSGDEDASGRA
mCherry-(s)-CENPT^∆N (Q96BT3, residues 396-561): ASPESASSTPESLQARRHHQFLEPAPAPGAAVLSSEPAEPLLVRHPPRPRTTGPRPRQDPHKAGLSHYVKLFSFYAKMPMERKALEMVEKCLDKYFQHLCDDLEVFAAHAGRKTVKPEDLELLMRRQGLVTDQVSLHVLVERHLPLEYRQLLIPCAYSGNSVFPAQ
UniProt Q5EE01: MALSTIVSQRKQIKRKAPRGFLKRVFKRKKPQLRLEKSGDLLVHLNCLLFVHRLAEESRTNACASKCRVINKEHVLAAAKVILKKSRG
UniProt A8MT69: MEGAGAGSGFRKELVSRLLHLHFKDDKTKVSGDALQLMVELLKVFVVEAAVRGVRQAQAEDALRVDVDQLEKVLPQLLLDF
UniProt Q9NSP4: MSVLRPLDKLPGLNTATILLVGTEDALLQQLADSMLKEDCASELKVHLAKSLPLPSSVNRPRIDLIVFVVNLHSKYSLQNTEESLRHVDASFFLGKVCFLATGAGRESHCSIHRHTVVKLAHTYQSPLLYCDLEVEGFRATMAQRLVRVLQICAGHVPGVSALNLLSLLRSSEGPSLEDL
UniProt Q8N2Z9: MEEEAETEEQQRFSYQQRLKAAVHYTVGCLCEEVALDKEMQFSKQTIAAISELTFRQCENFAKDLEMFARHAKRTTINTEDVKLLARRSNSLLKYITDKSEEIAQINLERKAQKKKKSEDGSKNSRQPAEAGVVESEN
UniProt Q8NBT2: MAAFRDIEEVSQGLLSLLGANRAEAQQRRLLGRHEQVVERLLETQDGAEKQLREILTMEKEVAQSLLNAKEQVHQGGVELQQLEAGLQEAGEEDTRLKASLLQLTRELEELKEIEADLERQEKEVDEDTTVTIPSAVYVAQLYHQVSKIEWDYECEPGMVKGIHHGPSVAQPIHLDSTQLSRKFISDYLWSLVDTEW

The target of experiment [1] is CENP-T^∆C-(s)-mCherry (human) (UniProt Q96BT3). The experiment is described as follows: dual color fluorescence cross-correlation spectroscopy (DC-FCCS); EGFP and mCherry fusion proteins co-expressed in living interphase HEp-2 or U2OS cells; spots in the nucleoplasm free of kinetochores, focal volume bleached before; 37°C; 488 and 561 nm; corrected values are the measured ones times about two.

Experiment [2] deals with mCherry-(s)-CENP-W (human) (UniProt Q5EE01). The experiment is described as follows: single-wavelength fluorescence cross-correlation spectroscopy (SW-FCCS); EGFP and mCherry fusion proteins co-expressed in living interphase HEK293 cells; nucleoplasm; 37°C; 514 nm; effective (apparent) Kd from scatter plot (S) or histogram (H), corrected for non-fluorescent mCherry and observation volumes.

The target in experiment [3] is mCherry-(s)-CENP-X (human) (UniProt A8MT69). The description is as above.
The target of experiment [4] is mCherry-(s)-CENPT^∆N (human) (UniProt Q96BT3). The description is as above.

These are yes or no findings as the source states them, for the method shown.

Consider “EGFP-(s)-CENP-M (from UniProt Q9NSP4 1-180)”, for which, in experiment [1], the binding result is reported as “no binding”.
For the substance “EGFP-(s)-CENP-S (from UniProt Q8N2Z9 1-138)”, the binding entry in experiment [2] is reported as “no binding”.
Turning to “EGFP-(s)-CENP-T^∆C (from UniProt Q96BT3 1-395) (domain or fragment)”, the binding entry in experiment [2] is recorded as “no binding”.
With “EGFP-(s)-CENP-W (from UniProt Q5EE01 1-88)”, in experiment [3], the binding result is on record as “no binding”.
As for “EGFP-(s)-Spc24 (from UniProt Q8NBT2 1-197)”, in experiment [4], the binding result was “no binding”.
